The source of these data is publication PMC12585102.

Sequences of proteins named here, by UniProt entry; tags and fusion partners are left off.
UniProt Q9P2E3: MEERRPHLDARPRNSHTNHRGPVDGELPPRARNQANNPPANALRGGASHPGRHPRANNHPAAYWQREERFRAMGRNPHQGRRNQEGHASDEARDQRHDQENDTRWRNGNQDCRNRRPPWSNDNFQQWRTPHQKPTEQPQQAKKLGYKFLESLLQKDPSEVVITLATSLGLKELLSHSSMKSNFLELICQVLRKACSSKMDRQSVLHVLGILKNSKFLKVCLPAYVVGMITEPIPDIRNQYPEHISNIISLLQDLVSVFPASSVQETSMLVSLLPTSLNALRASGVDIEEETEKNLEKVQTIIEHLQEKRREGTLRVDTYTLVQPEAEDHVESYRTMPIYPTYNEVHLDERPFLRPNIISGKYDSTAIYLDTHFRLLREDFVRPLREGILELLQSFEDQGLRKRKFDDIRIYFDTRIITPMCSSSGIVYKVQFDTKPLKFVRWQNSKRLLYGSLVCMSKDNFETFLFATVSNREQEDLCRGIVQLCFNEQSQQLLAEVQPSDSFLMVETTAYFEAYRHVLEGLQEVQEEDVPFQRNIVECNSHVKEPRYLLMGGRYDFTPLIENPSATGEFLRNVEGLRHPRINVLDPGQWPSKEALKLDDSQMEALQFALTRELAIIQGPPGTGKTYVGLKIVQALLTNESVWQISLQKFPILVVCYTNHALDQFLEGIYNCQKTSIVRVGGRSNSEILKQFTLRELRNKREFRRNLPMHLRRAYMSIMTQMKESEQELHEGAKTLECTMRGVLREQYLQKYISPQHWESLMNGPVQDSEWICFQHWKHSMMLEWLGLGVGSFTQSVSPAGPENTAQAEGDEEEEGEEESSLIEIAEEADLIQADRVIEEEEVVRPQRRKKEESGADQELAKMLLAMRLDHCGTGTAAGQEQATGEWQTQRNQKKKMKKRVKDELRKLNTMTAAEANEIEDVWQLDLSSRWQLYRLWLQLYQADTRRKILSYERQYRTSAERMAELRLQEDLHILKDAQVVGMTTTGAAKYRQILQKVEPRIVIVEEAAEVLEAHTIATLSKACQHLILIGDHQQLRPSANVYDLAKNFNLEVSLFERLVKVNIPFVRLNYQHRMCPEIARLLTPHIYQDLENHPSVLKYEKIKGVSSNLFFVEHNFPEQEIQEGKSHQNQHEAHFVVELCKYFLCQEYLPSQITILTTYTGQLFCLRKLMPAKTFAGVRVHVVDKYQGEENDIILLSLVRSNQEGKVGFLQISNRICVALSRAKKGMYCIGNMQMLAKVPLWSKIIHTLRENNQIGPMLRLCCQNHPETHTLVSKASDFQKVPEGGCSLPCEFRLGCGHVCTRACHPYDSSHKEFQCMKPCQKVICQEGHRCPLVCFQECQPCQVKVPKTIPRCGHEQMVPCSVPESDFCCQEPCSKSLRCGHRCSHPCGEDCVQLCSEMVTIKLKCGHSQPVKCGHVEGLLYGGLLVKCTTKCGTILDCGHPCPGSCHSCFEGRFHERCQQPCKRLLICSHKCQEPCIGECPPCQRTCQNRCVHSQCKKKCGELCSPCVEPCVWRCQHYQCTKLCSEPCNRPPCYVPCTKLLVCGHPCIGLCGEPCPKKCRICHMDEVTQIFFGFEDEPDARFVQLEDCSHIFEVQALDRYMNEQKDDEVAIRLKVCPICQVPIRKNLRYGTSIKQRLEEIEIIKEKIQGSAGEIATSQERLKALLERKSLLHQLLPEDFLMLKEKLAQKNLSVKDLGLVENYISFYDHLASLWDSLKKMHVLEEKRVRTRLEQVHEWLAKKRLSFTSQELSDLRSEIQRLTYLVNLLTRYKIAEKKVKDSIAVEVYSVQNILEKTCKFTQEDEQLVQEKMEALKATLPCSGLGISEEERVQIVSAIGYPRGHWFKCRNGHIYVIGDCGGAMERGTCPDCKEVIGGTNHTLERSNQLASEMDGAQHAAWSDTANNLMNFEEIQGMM

The target in this experiment is HsZNFX1-flag (human ZNFX1, flag-tagged) (human) (UniProt Q9P2E3). Kind of experiment: co-IP; HEK-293T cells transfected with EcMAVS-GFP (or GFP-tagged empty vector) together with HsZNFX1-flag; precipitating antibody not stated.

Results are given in words; binding and its absence hold for the method and conditions named. In cells and extracts the contact can be indirect. Some binding calls cover weakened binding; strength is not graded here. Tags and fused reporters may be left off the sequences shown.

B1: EcMAVS-GFP (mitochondrial antiviral signalling protein of Epinephelus coioides, GFP-tagged) (protein, UniProt A0A2D1AFT4 1-563)
chain: MSFVNDRLYNEFVRRKMSIFVHKVDVGEIIYHLPCLTAHDREHIEAKRQNRGNREGVMELLDCLKRRENWPEQFIEALDACEQWTLAAEMREKYNALRGIKRAAVAPPAEASAPPEPAAQASPPVQPQAPQSSAAQVPEAVSPPEPVPEPPQSTQAEVAPPPSTPPPSPAAPHTQPATPPPPQRETNSHQEPVENSESDIQDVSADDVVIPDQVSAGNREVSISSVDAPQPSRPVEQCETHTASPDPLQTTTTSTEVSPPQSPSASQMNSDVTNGSSFLTLTPERPPVQDTSPPGDFKAVLQPEETSEPPAAQVVESSPQTEAAATTSPPLGAAGMGAPLCGDSSVCLSKPGPLISVHPLNHSSPTIPAQSLPVPPYSGNTERLEISSSVSDAVTTAQSSTCSYVSSTTVTTASAPPCQETGIALNHNEPEENHYESPRNSLGMQSVQEHVGHVSEEPSILNLDGQNLTPQVPAVDSEAAKEMTFAPPLSNTAADTVRSVNTSCSENHHPCEPTPTDLSAEQKTLQGSEDKMACRTLTPNTKYILIAAGVGVCALLIAWRFKH
On to B1, for which the binding entry was “binds”.
